## Primary screen of a compound library

Amino acid sequences for entries named in this document (tags omitted). Residues count along the entry.
UniProt Q8IDJ8, 1-583: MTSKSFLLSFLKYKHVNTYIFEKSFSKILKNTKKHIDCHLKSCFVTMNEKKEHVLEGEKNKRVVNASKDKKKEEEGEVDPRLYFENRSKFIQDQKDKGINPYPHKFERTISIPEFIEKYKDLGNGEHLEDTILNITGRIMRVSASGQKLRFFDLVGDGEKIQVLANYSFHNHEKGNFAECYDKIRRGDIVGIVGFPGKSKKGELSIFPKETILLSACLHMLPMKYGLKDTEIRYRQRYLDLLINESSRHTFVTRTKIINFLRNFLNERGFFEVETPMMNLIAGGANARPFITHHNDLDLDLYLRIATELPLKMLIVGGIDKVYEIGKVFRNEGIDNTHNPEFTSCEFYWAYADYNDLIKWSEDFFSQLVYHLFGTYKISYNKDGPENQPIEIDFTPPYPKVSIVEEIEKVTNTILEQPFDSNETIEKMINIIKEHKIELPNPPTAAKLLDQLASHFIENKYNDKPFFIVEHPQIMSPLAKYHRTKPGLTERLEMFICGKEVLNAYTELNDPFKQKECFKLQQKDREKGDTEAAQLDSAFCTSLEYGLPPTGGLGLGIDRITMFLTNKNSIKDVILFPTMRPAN
UniProt I6X8D2, whole entry: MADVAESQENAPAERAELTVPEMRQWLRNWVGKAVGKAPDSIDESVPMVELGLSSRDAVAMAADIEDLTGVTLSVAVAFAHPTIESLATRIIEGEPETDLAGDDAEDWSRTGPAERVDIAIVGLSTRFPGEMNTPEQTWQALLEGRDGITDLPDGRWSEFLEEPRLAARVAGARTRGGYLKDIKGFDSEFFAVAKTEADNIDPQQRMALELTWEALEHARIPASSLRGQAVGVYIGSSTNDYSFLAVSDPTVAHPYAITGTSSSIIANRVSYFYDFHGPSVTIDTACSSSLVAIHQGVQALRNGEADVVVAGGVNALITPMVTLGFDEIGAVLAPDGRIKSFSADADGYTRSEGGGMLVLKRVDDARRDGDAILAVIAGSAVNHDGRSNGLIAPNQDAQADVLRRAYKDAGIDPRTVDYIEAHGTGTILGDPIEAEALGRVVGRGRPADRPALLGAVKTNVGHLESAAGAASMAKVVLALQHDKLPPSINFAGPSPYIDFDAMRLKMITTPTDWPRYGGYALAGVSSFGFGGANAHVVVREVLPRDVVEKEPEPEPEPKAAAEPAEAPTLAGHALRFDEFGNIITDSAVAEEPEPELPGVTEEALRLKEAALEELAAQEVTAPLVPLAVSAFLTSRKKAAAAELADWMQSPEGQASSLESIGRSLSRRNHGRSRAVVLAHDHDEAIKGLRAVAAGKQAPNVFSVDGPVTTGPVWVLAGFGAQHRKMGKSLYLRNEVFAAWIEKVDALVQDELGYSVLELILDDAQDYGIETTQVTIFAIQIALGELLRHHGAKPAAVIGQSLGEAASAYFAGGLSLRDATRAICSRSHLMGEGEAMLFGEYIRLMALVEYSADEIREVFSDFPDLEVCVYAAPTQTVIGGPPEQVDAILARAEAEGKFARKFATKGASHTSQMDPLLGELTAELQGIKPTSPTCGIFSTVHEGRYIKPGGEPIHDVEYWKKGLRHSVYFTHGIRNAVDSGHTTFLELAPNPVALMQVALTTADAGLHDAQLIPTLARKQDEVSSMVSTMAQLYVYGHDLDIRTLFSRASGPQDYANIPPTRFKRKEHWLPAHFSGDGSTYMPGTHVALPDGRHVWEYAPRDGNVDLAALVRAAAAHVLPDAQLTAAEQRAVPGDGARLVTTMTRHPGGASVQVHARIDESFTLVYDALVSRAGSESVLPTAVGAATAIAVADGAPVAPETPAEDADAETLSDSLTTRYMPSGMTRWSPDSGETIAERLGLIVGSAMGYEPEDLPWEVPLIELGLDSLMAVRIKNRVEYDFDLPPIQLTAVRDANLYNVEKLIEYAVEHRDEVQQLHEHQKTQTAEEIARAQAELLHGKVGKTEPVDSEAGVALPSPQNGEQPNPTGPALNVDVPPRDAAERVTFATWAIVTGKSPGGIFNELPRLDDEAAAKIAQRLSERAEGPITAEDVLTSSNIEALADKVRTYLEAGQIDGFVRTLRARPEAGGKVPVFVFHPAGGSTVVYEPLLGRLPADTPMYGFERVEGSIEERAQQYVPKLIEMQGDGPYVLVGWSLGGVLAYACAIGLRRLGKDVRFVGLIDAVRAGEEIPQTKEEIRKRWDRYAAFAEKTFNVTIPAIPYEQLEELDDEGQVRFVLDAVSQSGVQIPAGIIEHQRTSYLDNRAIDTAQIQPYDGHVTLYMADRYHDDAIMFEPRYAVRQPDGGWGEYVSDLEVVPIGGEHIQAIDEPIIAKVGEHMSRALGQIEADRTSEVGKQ
UniProt P9WFT3, whole entry: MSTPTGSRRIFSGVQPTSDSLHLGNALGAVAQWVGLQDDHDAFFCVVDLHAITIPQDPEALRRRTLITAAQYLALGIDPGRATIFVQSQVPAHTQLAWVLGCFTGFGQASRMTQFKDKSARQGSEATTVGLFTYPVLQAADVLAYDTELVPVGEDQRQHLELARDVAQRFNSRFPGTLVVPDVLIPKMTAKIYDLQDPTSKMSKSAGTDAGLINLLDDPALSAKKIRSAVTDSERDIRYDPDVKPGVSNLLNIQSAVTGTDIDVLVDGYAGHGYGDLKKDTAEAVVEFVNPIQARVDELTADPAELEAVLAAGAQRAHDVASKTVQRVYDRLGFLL
UniProt Q4DA54, 1-478: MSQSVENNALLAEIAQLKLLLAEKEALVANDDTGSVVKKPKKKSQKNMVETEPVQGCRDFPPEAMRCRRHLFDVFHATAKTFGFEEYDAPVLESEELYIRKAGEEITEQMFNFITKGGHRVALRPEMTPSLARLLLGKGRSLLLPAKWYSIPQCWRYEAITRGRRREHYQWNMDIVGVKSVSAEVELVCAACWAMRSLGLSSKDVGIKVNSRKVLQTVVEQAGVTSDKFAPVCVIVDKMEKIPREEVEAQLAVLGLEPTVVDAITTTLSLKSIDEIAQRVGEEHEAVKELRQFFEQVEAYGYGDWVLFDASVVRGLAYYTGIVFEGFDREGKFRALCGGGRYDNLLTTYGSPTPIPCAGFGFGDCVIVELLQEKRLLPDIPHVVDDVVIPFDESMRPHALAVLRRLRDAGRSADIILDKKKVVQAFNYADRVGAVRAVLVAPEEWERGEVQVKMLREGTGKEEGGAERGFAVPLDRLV

Source: ChEMBL document CHEMBL3988442, “University of Dundee, Small-Polar-MMV Screening Library” (2021).

The filed quantity is “Percent Effect” (%).
How 0% and 100% were set is not recorded. Most values in the screen are low, and negative values occur.
The compounds are a random part of those screened.

PfKRS1: 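Enzyme assay of the cytosolic lysyl-tRNA synthetase in 384-well plates, read by luminescence. Target: Lysine-tRNA ligase, Plasmodium falciparum 3D7 (UniProt Q8IDJ8). Compounds at 30 µM. Higher reads as stronger inhibition, judged from the few compounds that gave an IC50. Of about 69,000 compounds tested this way, about 49 (0.071%) reached 50% or more in at least one test.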
Pks13 thioesterase: 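Enzyme assay of the thioesterase domain of polyketide synthase 13; the read-out is not stated. Target: Polyketide synthase Pks13, Mycobacterium tuberculosis (UniProt I6X8D2). Concentration: 30 µM. The record gives no direction; the compounds picked for IC50 retests had high values, so higher reads as stronger inhibition. Of about 67,000 compounds tested this way, about 300 (0.46%) reached 50% or more in at least one test.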
MtTrpRS: 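Tryptophan-tRNA ligase, Mycobacterium tuberculosis (UniProt P9WFT3). Enzyme assay of tryptophanyl-tRNA synthetase; the read-out is not stated. Compounds at 10 µM. Direction is not recorded; retested compounds ran higher, which suggests that high means inhibition. About 65,000 compounds were tested under these conditions; 0.098% (about 64) showed 50% or more at least once.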
TcHisRS: 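Histidine-tRNA ligase, Trypanosoma cruzi CL Brener (UniProt Q4DA54). Enzyme assay of histidyl-tRNA synthetase; the read-out is not stated. Tested at 30 µM. The record gives no direction; compounds that gave an IC50 in retests scored well above the rest, so higher reads as stronger inhibition. Of about 69,000 compounds tested this way, about 31 (0.045%) reached 50% or more in at least one test.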

- COc1ccc2cccc(CC(=O)NCc3nccc(N)n3)c2c1 | PfKRS1: -2.013%; Pks13 thioesterase: -44.78%; MtTrpRS: 0%; TcHisRS: 9.211%
- Cn1cc(CNC[C@H]2Cn3ccnc3CO2)c2ccccc21 | PfKRS1: 3.253%; Pks13 thioesterase: -19.57%; MtTrpRS: -1.745%; TcHisRS: 7.609%
- Cn1ccnc1C(=O)NCc1cnc2n1CCN(CC1CC1)CC2 | PfKRS1: 1.991%; Pks13 thioesterase: 1.935%; MtTrpRS: -8.076%; TcHisRS: 2.804%
- CCCC1(NC(=O)C(c2ccc(F)cc2)N(C)C)CC1 (configuration not stated) | PfKRS1: -2.495%; Pks13 thioesterase: 11.61%; MtTrpRS: 2.142%; TcHisRS: 0.5618%
- CC(=O)N(Cc1ncc(C)o1)C1CCN(Cc2ccon2)C1 (configuration not stated) | PfKRS1: -2.493%; Pks13 thioesterase: -301.4%; MtTrpRS: 2.759%; TcHisRS: 3.207%
- CCCC(=O)Nc1ccc(CC(=O)N(CC)CC2CCCCO2)cc1 (configuration not stated) | PfKRS1: -2.166%; Pks13 thioesterase: -23.52%; MtTrpRS: 0.455%; TcHisRS: -3.191%
- O=C(NCCNC(=O)C1CC1)c1cnc(-c2ccccc2)nc1 | PfKRS1: -0.99%; MtTrpRS: 12.05%; TcHisRS: -3.488%
- CCCC1SCCN1C(=O)c1ccc(-n2ncc(C#N)c2N)cc1 (configuration not stated) | PfKRS1: 1.314%; Pks13 thioesterase: 12.1%; MtTrpRS: -0.7224%; TcHisRS: 11.69%
- COc1cc2c(cc1CN1CCc3sccc3C1C)OCCO2 (configuration not stated) | PfKRS1: 0.8726%; Pks13 thioesterase: -3.926%; MtTrpRS: -8.394%; TcHisRS: 4.651%
- Cc1nc[nH]c1CN1CCCC(CNC(=O)c2ccncn2)C1 (configuration not stated) | PfKRS1: 1.2%; Pks13 thioesterase: -34.07%; MtTrpRS: -3.65%; TcHisRS: 3.409%
- CCOC(=O)N1CCN(C(=O)c2sc(-c3ccccc3)nc2C)CC1 | PfKRS1: -5.291%; Pks13 thioesterase: 14.58%; MtTrpRS: -1.801%; TcHisRS: -4.124%
- COC(=O)N1CCC(NC2CCSCC2)C1 (configuration not stated) | PfKRS1: 3.656%; Pks13 thioesterase: -19.92%; MtTrpRS: -3.565%; TcHisRS: 0%
- CCOCC(=O)NC(C)c1cc(C)ccc1C (configuration not stated) | PfKRS1: 0.9853%; Pks13 thioesterase: 8.299%; MtTrpRS: -1.615%; TcHisRS: 1.087%
- Cc1ccnn1CCC(=O)N1CCCC1c1cc2cccnc2[nH]1 (configuration not stated) | PfKRS1: 1.431%; Pks13 thioesterase: 8.245%; MtTrpRS: -6.078%; TcHisRS: 2.326%
- Cn1cc(CN2CCC(CCC(=O)NC3CC3)CC2)cn1 | PfKRS1: -2.785%; Pks13 thioesterase: -14.5%; MtTrpRS: -1.847%; TcHisRS: 1.02%
- CN(C)C(=O)C1CCN(Cn2nc(-c3ccc(F)cc3)oc2=O)CC1 | PfKRS1: 2.418%; Pks13 thioesterase: -7.278%; MtTrpRS: 0.2921%; TcHisRS: 2.299%
- Cc1nccc(C2CCCCN2Cc2ccc(F)cc2)n1 (configuration not stated) | PfKRS1: -2.841%; Pks13 thioesterase: -1.235%; MtTrpRS: 13.49%; TcHisRS: 11.41%
- COc1ccc(-c2cc(C(=O)N3N=C(C)CC3(O)C(F)(F)F)[nH]n2)cc1 (configuration not stated) | PfKRS1: -6.302%; Pks13 thioesterase: 6.954%; MtTrpRS: -0.678%; TcHisRS: 2.484%
- COc1ccc(NC(=O)CN2CCCCC2C2OCCO2)cc1 (configuration not stated) | PfKRS1: 0.6849%; Pks13 thioesterase: -8.183%; MtTrpRS: 5.21%; TcHisRS: -1.724%
- c1cnn(CCNCCCOc2ccc3c(c2)OCO3)c1 | PfKRS1: 1.727%; Pks13 thioesterase: -42.41%; MtTrpRS: -4.562%; TcHisRS: 2.618%
- CC(=O)Nc1cccc(OCCNC(=O)N(C)Cc2ccncc2)c1 | PfKRS1: -7.662%; Pks13 thioesterase: -19.96%; MtTrpRS: 6.155%; TcHisRS: 1.667%
- CCCn1c(C)c(CC(=O)NCC(N)=O)c2c1CC(C)(C)CC2=O | PfKRS1: 9.861%; Pks13 thioesterase: -43.1%; MtTrpRS: 4.067%; TcHisRS: 5.83%
- Cc1csc(C2CCCCN2C(=O)CCCn2cncn2)n1 (configuration not stated) | PfKRS1: -2.042%; Pks13 thioesterase: -23.01%; MtTrpRS: -1.868%; TcHisRS: -1.299%
- COc1cnc(N2CCC(Oc3ccccc3OC)(C(=O)O)CC2)nc1 | PfKRS1: 5.294%; Pks13 thioesterase: -10.62%; MtTrpRS: -0.7401%; TcHisRS: -0.8264%
- CC(c1ccco1)N(C)C(=O)NCCOc1ccc(C#N)cc1 (configuration not stated) | PfKRS1: -2.308%; Pks13 thioesterase: -4.424%; MtTrpRS: -2.016%; TcHisRS: 1.98%
- O=C(NCc1nnc2n1CCCC2)N1CCc2sccc2C1 | PfKRS1: 1.889%; Pks13 thioesterase: -13.27%; MtTrpRS: -3.01%; TcHisRS: 5.413%
- O=C(NCc1cncc2c1CCN(Cc1ccccc1)C2)C1CC1 | PfKRS1: 1.412%; Pks13 thioesterase: 8.477%; MtTrpRS: 2.975%; TcHisRS: 6.468%
- COc1ccccc1C1(CNc2ccnc(C(=O)N(C)C)c2)CC1 | PfKRS1: 0.2733%; Pks13 thioesterase: 6.264%; MtTrpRS: -4.128%; TcHisRS: 0%

Once more, the final 3:

{"compound": "O=C(NCc1nnc2n1CCCC2)N1CCc2sccc2C1", "PfKRS1": 1.889, "Pks13 thioesterase": -13.27, "MtTrpRS": -3.01, "TcHisRS": 5.413}
{"compound": "O=C(NCc1cncc2c1CCN(Cc1ccccc1)C2)C1CC1", "PfKRS1": 1.412, "Pks13 thioesterase": 8.477, "MtTrpRS": 2.975, "TcHisRS": 6.468}
{"compound": "COc1ccccc1C1(CNc2ccnc(C(=O)N(C)C)c2)CC1", "PfKRS1": 0.2733, "Pks13 thioesterase": 6.264, "MtTrpRS": -4.128, "TcHisRS": 0}